Our source for the binding values is PMC6876566.

Assay [1] has as its target T1, ATR interacting protein (ATRIP) (human (endogenous in HCT116)) (UniProt Q8WXE1).
T1 sequence: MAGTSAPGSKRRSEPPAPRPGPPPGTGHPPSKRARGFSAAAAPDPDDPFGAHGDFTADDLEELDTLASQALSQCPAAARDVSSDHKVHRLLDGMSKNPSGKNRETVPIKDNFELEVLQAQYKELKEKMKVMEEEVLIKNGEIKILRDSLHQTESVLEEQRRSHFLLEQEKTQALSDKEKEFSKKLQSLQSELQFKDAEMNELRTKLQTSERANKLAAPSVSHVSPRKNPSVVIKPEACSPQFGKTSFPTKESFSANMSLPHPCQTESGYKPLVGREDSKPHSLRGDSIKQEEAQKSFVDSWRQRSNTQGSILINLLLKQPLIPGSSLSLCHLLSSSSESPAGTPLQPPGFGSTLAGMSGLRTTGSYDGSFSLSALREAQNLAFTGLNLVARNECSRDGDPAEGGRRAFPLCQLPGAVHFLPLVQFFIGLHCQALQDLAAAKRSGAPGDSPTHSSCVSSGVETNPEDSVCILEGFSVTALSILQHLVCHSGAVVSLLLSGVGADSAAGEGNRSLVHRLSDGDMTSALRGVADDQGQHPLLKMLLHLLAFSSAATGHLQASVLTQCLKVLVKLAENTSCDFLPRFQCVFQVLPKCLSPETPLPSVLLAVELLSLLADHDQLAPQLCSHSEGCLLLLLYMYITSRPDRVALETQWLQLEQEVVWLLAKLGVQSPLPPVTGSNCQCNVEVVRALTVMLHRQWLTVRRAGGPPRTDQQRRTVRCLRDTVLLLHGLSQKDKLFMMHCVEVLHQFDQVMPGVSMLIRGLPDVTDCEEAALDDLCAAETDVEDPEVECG
Briefly: co-IP; endogenous proteins, HCT116 whole cell lysates, immunoprecipitation with ZFP161 or ATRIP antibody and protein A beads; lysis in high salt NETN (500 mM NaCl), diluted with NET buffer; unstressed cells, also after DNA damage or replication stress.

A further assay deals with T2, ZFP161 D3 mutant (UniProt O43829).
T2 sequence: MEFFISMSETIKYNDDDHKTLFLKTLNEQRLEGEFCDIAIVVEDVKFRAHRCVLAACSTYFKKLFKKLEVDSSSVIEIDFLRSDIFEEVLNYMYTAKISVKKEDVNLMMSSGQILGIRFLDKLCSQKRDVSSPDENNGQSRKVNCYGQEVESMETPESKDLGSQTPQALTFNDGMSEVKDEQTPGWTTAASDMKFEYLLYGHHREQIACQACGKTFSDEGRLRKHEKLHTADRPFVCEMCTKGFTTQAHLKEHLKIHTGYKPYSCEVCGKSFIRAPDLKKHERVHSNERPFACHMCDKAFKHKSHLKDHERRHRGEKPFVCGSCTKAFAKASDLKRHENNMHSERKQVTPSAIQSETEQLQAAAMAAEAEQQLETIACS
Briefly: co-IP; HEK293T cells transfected with ZFP161 vectors (with S-tagged RPA32 for Fig. 4e), 48 h, immunoprecipitation and immunoblotting.

These are yes or no findings as the source states them, for the method shown. In cells and extracts the contact can be indirect. Some entries that bind do so weakly or less than the wild type.

As to ZFP161 (from UniProt O43829 1-449), in assay [1], the binding result is “binds”.

B1: ATRIP (in HEK293T cells) (protein, UniProt Q8WXE1 1-791)
chain: MAGTSAPGSKRRSEPPAPRPGPPPGTGHPPSKRARGFSAAAAPDPDDPFGAHGDFTADDLEELDTLASQALSQCPAAARDVSSDHKVHRLLDGMSKNPSGKNRETVPIKDNFELEVLQAQYKELKEKMKVMEEEVLIKNGEIKILRDSLHQTESVLEEQRRSHFLLEQEKTQALSDKEKEFSKKLQSLQSELQFKDAEMNELRTKLQTSERANKLAAPSVSHVSPRKNPSVVIKPEACSPQFGKTSFPTKESFSANMSLPHPCQTESGYKPLVGREDSKPHSLRGDSIKQEEAQKSFVDSWRQRSNTQGSILINLLLKQPLIPGSSLSLCHLLSSSSESPAGTPLQPPGFGSTLAGMSGLRTTGSYDGSFSLSALREAQNLAFTGLNLVARNECSRDGDPAEGGRRAFPLCQLPGAVHFLPLVQFFIGLHCQALQDLAAAKRSGAPGDSPTHSSCVSSGVETNPEDSVCILEGFSVTALSILQHLVCHSGAVVSLLLSGVGADSAAGEGNRSLVHRLSDGDMTSALRGVADDQGQHPLLKMLLHLLAFSSAATGHLQASVLTQCLKVLVKLAENTSCDFLPRFQCVFQVLPKCLSPETPLPSVLLAVELLSLLADHDQLAPQLCSHSEGCLLLLLYMYITSRPDRVALETQWLQLEQEVVWLLAKLGVQSPLPPVTGSNCQCNVEVVRALTVMLHRQWLTVRRAGGPPRTDQQRRTVRCLRDTVLLLHGLSQKDKLFMMHCVEVLHQFDQVMPGVSMLIRGLPDVTDCEEAALDDLCAAETDVEDPEVECG
As for B1, in the assay with ZFP161 D3 mutant, the binding entry is recorded as “no binding”.
